# Percent effect of library compounds

Amino acid sequences for entries named in this document (tags omitted). Residues count along the entry.
UniProt I6X8D2, whole entry: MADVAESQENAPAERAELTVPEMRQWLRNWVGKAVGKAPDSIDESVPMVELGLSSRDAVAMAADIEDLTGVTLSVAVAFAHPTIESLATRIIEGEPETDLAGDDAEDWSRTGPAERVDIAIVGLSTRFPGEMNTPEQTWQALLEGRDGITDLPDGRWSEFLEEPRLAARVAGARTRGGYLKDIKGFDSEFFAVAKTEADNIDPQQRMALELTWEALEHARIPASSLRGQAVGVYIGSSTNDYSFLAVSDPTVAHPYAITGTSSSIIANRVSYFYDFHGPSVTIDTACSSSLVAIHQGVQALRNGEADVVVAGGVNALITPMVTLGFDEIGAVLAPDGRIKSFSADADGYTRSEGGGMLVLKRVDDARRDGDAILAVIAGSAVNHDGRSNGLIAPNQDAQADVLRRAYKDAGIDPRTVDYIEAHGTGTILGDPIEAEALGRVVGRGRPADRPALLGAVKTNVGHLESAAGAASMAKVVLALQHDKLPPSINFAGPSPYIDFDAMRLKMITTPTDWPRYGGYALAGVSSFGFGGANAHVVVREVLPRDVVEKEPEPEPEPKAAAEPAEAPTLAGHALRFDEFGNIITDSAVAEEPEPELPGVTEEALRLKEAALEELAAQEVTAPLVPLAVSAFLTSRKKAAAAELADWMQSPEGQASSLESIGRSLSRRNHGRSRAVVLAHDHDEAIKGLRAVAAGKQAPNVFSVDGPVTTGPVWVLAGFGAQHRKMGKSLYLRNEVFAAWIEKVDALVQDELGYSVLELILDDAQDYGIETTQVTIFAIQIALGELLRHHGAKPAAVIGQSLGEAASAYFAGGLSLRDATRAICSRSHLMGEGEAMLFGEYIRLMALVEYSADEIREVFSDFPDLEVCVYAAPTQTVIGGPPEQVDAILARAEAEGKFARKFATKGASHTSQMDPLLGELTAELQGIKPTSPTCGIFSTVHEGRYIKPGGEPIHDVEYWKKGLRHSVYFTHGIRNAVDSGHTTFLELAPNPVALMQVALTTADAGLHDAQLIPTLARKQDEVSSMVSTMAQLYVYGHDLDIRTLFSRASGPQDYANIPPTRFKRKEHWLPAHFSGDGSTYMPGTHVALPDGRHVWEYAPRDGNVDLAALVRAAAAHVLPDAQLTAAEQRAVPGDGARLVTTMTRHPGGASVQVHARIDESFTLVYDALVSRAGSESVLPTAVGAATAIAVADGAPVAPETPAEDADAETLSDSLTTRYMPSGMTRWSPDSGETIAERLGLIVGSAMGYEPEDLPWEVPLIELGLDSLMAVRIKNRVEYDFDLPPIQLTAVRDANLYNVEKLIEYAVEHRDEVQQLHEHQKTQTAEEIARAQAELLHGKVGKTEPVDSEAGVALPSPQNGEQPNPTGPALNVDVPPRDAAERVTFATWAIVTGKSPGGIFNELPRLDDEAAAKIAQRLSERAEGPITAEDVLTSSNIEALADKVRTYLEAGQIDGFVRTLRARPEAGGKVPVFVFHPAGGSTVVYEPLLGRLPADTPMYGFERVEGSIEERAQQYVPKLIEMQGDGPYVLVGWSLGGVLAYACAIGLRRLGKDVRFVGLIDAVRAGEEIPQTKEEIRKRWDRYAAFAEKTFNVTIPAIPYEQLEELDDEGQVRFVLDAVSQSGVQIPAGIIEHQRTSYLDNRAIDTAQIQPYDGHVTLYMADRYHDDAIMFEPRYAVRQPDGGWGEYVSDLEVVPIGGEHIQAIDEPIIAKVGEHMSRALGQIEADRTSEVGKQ
UniProt A4I591, 1-473: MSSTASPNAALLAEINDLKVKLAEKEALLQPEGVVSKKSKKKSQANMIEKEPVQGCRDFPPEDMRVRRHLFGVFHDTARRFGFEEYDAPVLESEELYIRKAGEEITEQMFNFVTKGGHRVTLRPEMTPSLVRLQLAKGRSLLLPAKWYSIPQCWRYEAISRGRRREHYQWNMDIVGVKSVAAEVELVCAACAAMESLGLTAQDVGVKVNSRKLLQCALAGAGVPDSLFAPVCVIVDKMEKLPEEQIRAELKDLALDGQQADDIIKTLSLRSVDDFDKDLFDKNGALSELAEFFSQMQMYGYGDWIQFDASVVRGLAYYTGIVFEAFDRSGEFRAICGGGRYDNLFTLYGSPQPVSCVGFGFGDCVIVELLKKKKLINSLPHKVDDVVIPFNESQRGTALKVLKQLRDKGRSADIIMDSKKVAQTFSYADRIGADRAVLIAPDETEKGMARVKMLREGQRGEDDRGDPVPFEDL
UniProt P9WNZ1, whole entry: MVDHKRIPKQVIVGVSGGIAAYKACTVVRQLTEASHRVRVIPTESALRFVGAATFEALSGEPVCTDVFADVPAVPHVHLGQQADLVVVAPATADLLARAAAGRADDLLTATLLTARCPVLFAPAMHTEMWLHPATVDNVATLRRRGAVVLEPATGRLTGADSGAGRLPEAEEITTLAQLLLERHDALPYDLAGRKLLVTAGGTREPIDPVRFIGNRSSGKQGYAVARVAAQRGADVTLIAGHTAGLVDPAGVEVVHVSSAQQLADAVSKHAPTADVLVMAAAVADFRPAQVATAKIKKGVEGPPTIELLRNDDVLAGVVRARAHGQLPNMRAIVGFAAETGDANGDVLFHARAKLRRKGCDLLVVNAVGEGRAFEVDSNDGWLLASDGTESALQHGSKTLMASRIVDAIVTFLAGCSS

Pks13 thioesterase: 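Enzyme assay of the thioesterase domain of polyketide synthase 13; the read-out is not stated. Target: Polyketide synthase Pks13, Mycobacterium tuberculosis (UniProt I6X8D2). Compounds at 30 µM. The record gives no direction; the compounds picked for IC50 retests had high values, so higher reads as stronger inhibition. About 67,000 compounds were tested under these conditions; 0.46% (about 300) showed 50% or more at least once.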
LiHisRS: 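Enzyme assay of histidyl-tRNA synthetase; the read-out is not stated. Target: Histidine-tRNA ligase, Leishmania infantum (UniProt A4I591). Compounds at 30 µM. Higher reads as stronger inhibition (inferred: compounds with an IC50 in retests scored well above the rest). The assay is labelled LdHisRS but filed under L. infantum. Size under these conditions: about 69,000 compounds, about 410 of them at 50% or above in at least one test.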
CoaBC: 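Coenzyme A biosynthesis protein CoaBC, Mycobacterium tuberculosis (UniProt P9WNZ1). Enzyme assay of CoaBC with a phosphate dye (Biomol Green) read at 650 nm. Compounds at 30 µM. Higher reads as stronger inhibition, judged from the few compounds that gave an IC50. Most strong results did not repeat in a second test. Of about 67,000 compounds tested this way, about 40 (0.06%) reached 50% or more in at least one test.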

Results are given as percent effect. The controls that fix the scale are not given in the record; negative values are as filed. Compounds were drawn at random from those tested, without regard to their results. A dash means the value is not listed here; it may have been measured.

| # | Compound | Pks13 thioesterase | LiHisRS | CoaBC |
|---|---|---|---|---|
| 1 | `CC(C)c1n[nH]c(C2CN(C(=O)c3cccc4cn[nH]c34)CCO2)n1` (stereo not shown) | 6.467% | 10.61% | 2.17% |
| 2 | `Cc1cc(NC(=O)NCc2cccnc2OC(C)C)n(C)n1` | -6.262% | 16.22% | 6.005% |
| 3 | `O=C(CCc1cnn(-c2ccccc2)c1)N1CCCC(n2cccn2)C1` (stereo not shown) | -11.11% | 44% | 2.128% |
| 4 | `CC(c1cc(F)ccc1F)N(C)CCS(=O)(=O)CCC(N)=O` (stereo not shown) | -10.45% | 25.64% | -6% |
| 5 | `CCN(Cc1cccc(F)c1)S(=O)(=O)N1CCOCC1` | 2.375% | 15.09% | 2.737% |
| 6 | `COCCN1CCN(CC(=O)N(C)Cc2ccc(F)cc2)CC1C` (stereo not shown) | -25.6% | 11.11% | 0.2415% |
| 7 | `c1cc(C2CCN(c3ncnc4c3CCNCC4)CC2)ccn1` | -6.774% | 10.2% | 5.052% |
| 8 | `O=C1CCCN1Cc1nnc(SCc2ccc3c(c2)CCC3)o1` | 3.838% | 16.96% | 3.306% |
| 9 | `COCCNC(=O)[C@H]1CC[C@@H]2[C@@H](CCN2c2ncc(F)cn2)O1` | -27.6% | 22.22% | 4.194% |
| 10 | `CC(C)N1[C@H](CN2CCCC2)C[C@@H]2CN(Cc3ccoc3)CC[C@@H]21` | - | 18.8% | - |
| 11 | `CNC(=O)c1ccc(S(=O)(=O)NCc2cccnc2N(C)C)cc1` | 5.102% | 11.86% | 0.7874% |
| 12 | `CC(C)CC(CC(C)C)NC(=O)c1ccn(C)c(=O)c1` | -2.257% | 22.12% | -2.57% |
| 13 | `NCC1Cc2cccc(-c3nccc(N4CCC(O)CC4)n3)c2O1` (stereo not shown) | -30.08% | 34.29% | -22.68% |
| 14 | `CCCNC(=O)Nc1cc2c(cc1SC)OCCO2` | -17.64% | 15.38% | 8.489% |
| 15 | `CC(c1ccccn1)N(C)Cc1ccc(-n2cncn2)cc1` (stereo not shown) | -10.36% | 9.79% | -2.963% |
| 16 | `CN(C)c1nc2c(c(N(C)C)n1)CCN(C(=O)CN1CCC(O)CC1)C2` | -23.84% | 17.74% | 0.861% |
| 17 | `Cc1cccc2c(CCNC(=O)NCC[S+](C)[O-])c[nH]c12` (stereo not shown) | 5.049% | 6.838% | 2.564% |
| 18 | `COc1ccc(CN(C)c2nc3c(cnn3C)c(=O)[nH]2)c(OC)c1` | -10.14% | 14.91% | 9.627% |
| 19 | `COc1ccc([C@@H]2CN(Cc3cccnc3N)C[C@H]2NC(C)=O)cc1` | -21.98% | 8.392% | 1.481% |
| 20 | `O=C(NCCNc1cnccn1)N1CCCC(N2CCCC2)C1` (stereo not shown) | 3.024% | 3.509% | 5.342% |
| 21 | `COc1cc2c(cc1CN1CCC3(CCCN(C)C3=O)C1)OCCO2` (stereo not shown) | -18.98% | 6.452% | 3.928% |
| 22 | `O=C(c1ccco1)N1CCCC2(C1)CN(c1nncs1)CCO2` (stereo not shown) | -23.18% | 17.12% | 1.733% |
| 23 | `CC(N(C)Cc1nc2c(cnn2C)c(=O)[nH]1)C(C)(C)C` (stereo not shown) | -15.63% | -6.154% | 3.71% |
| 24 | `CCOc1ccccc1N1CCN(c2nnc(C)o2)CC1` | -1.962% | 15.96% | 4.04% |
| 25 | `CC(C)(C)n1ncc2c1CCCC2NCc1ccsc1` (stereo not shown) | -6.859% | 12.5% | 0.8092% |
| 26 | `OC(CNCc1nnc2ccccn12)c1ccc2c(c1)OCCCO2` (stereo not shown) | -2.538% | 18.33% | 0.8168% |
| 27 | `CC(NC(=O)NCCCN1CCCC1=O)c1nncn1C` (stereo not shown) | -40.69% | 16.36% | 4.337% |
| 28 | `O=C(Cc1ccccc1C(F)(F)F)N1CCC2(CC1)[C@H](O)C[C@@H]2O` | -4.4% | 3.297% | 2.41% |
| 29 | `O=C(N[C@@H]1CCNC[C@H]1O)c1cc(F)cc(Cl)c1` | 2.822% | 9.434% | 7.368% |
| 30 | `O=C(Cn1cc(C2CC2)nn1)NC(c1cc(F)ccc1F)C1CC1` (stereo not shown) | -23.11% | 13.68% | -3.846% |
| 31 | `COc1ccccc1N1CCCC(NC(=O)Nc2cccnc2)C1` (stereo not shown) | 3.811% | 13.73% | 3.067% |
| 32 | `CSCCCN1CCn2nc(CNC(=O)N(C)C)cc2C1` | -5.649% | 18.4% | 0.1206% |
| 33 | `Cc1cc(-c2nn(C)c(Cl)c2CN2CC[C@H](CO)[C@@H](O)C2)no1` | 18.7% | 2.778% | 10.71% |
| 34 | `COc1ccc2cc(C3CN(C(=O)CCNC(C)=O)CCO3)ccc2c1` (stereo not shown) | 8.794% | 3.774% | 3.158% |
| 35 | `Cc1cc(C(=O)N2CCN(Cn3cc(Cl)cn3)CC2)on1` | -4.848% | 14.53% | 1.681% |
| 36 | `CCCc1nc(C)c(C(=O)NC2CCN(CC(N)=O)CC2)s1` | -7.606% | 23.23% | 0.2415% |
| 37 | `CNC(=O)C1(c2cnccn2)CCCN1C(=O)c1ccccc1OC` (stereo not shown) | -11.18% | 2.857% | 0.3927% |
| 38 | `CO[C@@H]1CCN(Cc2c(C)noc2C)[C@@H]2CN(Cc3cccnc3)C[C@@H]21` | 3.171% | 15.09% | 4.146% |
| 39 | `COC[C@@]12CCO[C@@H]1CCN(C(=O)CCc1ccccc1Cl)C2` | -8.255% | 12.9% | 4.316% |
| 40 | `CC(=O)NCCc1cn(-c2cc(F)ccc2C)cn1` | -12.43% | 25.81% | -4.305% |
| 41 | `CC(C)c1noc(CCC(=O)NCC2CCS(=O)(=O)C2)n1` (stereo not shown) | -9.428% | 22.97% | 1.173% |
| 42 | `O=C(NCC1CCCN(C(=O)NCCc2ccccc2)C1)c1ccco1` (stereo not shown) | -15.23% | 11.11% | 3.23% |
| 43 | `Cc1cc(N(Cc2cccnc2)C2CC2)n2nc(C(F)(F)F)nc2n1` | -27.37% | -11.43% | 3.736% |
| 44 | `Cc1ccccc1C(Nc1ncnc2c1CCNC2)c1ccccc1` (stereo not shown) | 1.542% | 43.62% | -14.81% |
| 45 | `CC(c1cccs1)N(C)Cc1cnc(-c2ccccn2)nc1` (stereo not shown) | -32.68% | 20% | -0.5076% |
| 46 | `COCC(=O)N1CCC(c2c(C(=O)N(C)C)sc3ncccc23)C1` (stereo not shown) | 5.986% | 11.19% | -6.538% |
| 47 | `CCN(C)S(=O)(=O)N(CC)Cc1ccc2c(c1)OCO2` | -14.34% | -10.96% | -1.446% |
| 48 | `CC(C)Cc1cc(C(=O)N2CCC(C(=O)N3CCOCC3)CC2)on1` | -17.26% | 13.98% | 3.532% |
| 49 | `CNc1ncc(C(=O)N2CCC(c3ccccc3C(=O)O)C2)cn1` (stereo not shown) | -0.9854% | 10.83% | 0.1242% |
| 50 | `Cc1cc(CN2CCN(C(=O)C(C(C)C)n3cncn3)CC2)no1` (stereo not shown) | -17.98% | 15.29% | 4.569% |
| 51 | `COCCCSc1ccc(NCc2cscn2)cc1` | -16.48% | 6.494% | -1.582% |
| 52 | `Cc1ccc(C(=O)NCCCN(C)S(C)(=O)=O)cc1-n1cccc1` | -10.41% | 12.33% | -1.976% |
| 53 | `CCOc1ncccc1NC(=O)N1CCCN(C(=O)OC)CC1` | -16.43% | 16.51% | 7.846% |
| 54 | `CNC(=O)COC1COC2(CCN(Cc3ccncc3F)CC2)C1` (stereo not shown) | -4.028% | 15.09% | 1.463% |
| 55 | `NC(=O)C(CNC(=O)COCC(F)(F)F)Cc1ccc(F)cc1` (stereo not shown) | -28.98% | 14.29% | -0.4049% |
| 56 | `CN(Cc1ccccc1F)C(=O)COC(=O)c1cc(Cl)c[nH]1` | 5.889% | -36.96% | -5.711% |
| 57 | `Cc1ccc(CN2Cc3c(C(=O)N4CCCC4)nn(C)c3C2)s1` | -19.99% | 6.452% | -2.343% |
| 58 | `CC(O)CN(c1ccccc1)S(=O)(=O)c1cc(C(=O)O)cc2c1CCC2` (stereo not shown) | -29.81% | 10.83% | - |
| 59 | `Nc1nc2c(c(NCc3ccncc3)n1)CCCC2` | -4.855% | 21.13% | 0% |
| 60 | `CC(C)c1noc(CN(Cc2cccs2)C2CC2)n1` | -7.574% | -4.717% | -11.82% |
| 61 | `CCNC(=O)N1CCC2(C1)c1ccccc1S(=O)(=O)N2CCC(C)C` (stereo not shown) | -18.19% | 11.32% | 3.68% |
| 62 | `N#CCCN(CC(F)(F)F)C(=O)c1cc(-n2cccn2)ccn1` | -12.08% | 1.042% | -2.679% |
| 63 | `CNC(=O)c1cc(C)n(-c2ccccc2)n1` | -186.7% | 1.98% | 1.942% |

Data taken from ChEMBL document CHEMBL3988442, “University of Dundee, Small-Polar-MMV Screening Library” (2021).